The chains behind the UniProt entries cited, without tags or fusion partners.
UniProt P63141: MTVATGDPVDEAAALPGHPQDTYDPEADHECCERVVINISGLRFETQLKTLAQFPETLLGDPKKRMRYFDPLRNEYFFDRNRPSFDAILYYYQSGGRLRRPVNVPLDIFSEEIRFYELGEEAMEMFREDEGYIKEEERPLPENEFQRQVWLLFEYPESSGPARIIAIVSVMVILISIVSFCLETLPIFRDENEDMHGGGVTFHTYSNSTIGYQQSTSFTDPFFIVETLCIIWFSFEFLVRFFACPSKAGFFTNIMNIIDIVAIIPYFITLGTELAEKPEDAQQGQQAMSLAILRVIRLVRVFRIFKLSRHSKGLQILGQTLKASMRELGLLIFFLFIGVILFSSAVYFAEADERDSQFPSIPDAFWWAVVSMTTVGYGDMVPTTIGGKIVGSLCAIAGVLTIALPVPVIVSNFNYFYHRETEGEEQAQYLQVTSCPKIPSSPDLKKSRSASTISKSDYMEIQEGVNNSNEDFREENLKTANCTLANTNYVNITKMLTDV

In publication doi:10.1101/2025.10.29.685130:

B1: septin 6 (protein, UniProt Q9R1T4 1-434)
chain: MAAADIARQVGEDCRTVPLAGHVGFDSLPDQLVNKSVSQGFCFNILCVGETGLGKSTLMDTLFNTKFEGEPATHTQPGVQLQSNTYDLQESNVGLKLTIVSTVGFGDQINKEDSYKPIVEFIDAQFEAYLQEELKIRRVLHSYHDSRIHVCLYFIAPTGHSLKSLDLVTMKKLDSKVNIIPVIAKSDAISKSELAKFKIKITSELVSNGVQIYQFPTDDESVSEINGTMNAHLPFAVVGSTEEVKIGNKMMRARQYPWGTVQVENEAHCDFVKLREMLIRVNMEDLREQTHARHYELYRRCKLEEMGFKDTDPDSKPFSLQETYEAKRNEFLGELQKKEEEMRQMFVQRVKEKEAELKEAEKELHEKFDRLKKLHQEEKKKLEDKKKCLDEEMNAFKQRKAAAELLQSQGSQAGGSQTLKRDKEKKNNPWLCIE
B2: SERA (enzyme, UniProt Q61753 1-533)
chain: MAFANLRKVLISDSLDPCCRKILQDGGLQVVEKQNLSKEELIAELQDCEGLIVRSATKVTADVINAAEKLQVVGRAGTGVDNVDLEAATRKGILVMNTPNGNSLSAAELTCGMIMCLARQIPQATASMKDGKWDRKKFMGTELNGKTLGILGLGRIGREVATRMQSFGMKTVGYDPIISPEVAASFGVQQLPLEEIWPLCDFITVHTPLLPSTTGLLNDSTFAQCKKGVRVVNCARGGIVDEGALLRALQSGQCAGAALDVFTEEPPRDRALVDHENVISCPHLGASTKEAQSRCGEEIAVQFVDMVKGKSLTGVVNAQALTSAFSPHTKPWIGLAEAMGTLMHAWAGSPKGTIQVVTQGTSLKNAGTCLSPAVIVGLLREASKQADVNLVNAKLLVKEAGLNVTTSHNPGVPGEQGSGECLLTVALAGAPYQAVGLVQGTTPMLQMLNGAVFRPEVPLRRGQPLLVFRAQPSDPGMLPTMIGLLAEAGVQLLSYQTSMVSDGEPWHVMGLSSLLPSLETWKQHVLEAFQFCF
B3: 14-3-3 γ (protein, UniProt P61982 1-247)
chain: MVDREQLVQKARLAEQAERYDDMAAAMKNVTELNEPLSNEERNLLSVAYKNVVGARRSSWRVISSIEQKTSADGNEKKIEMVRAYREKIEKELEAVCQDVLSLLDNYLIKNCSETQYESKVFYLKMKGDYYRYLAEVATGEKRATVVESSEKAYSEAHEISKEHMQPTHPIRLGLALNYSVFYYEIQNAPEQACHLAKTAFDDAIAELDTLNEDSYKDSTLIMQLLRDNLTLWTSDQQDDDGGEGNN
B4: ASTRB (protein, UniProt Q80TI0 1-738)
chain: MKGFKLSCTASNSNRSTPACSPILRKRSRSPTPQNQDGDTMVEKGSDHSSDKSPSTPEQGVQRSCSSQSGRSGGKNSKKSQSWYNVLSPTYKQRNEDFRKLFKQLPDTERLIVDYSCALQRDILLQGRLYLSENWICFYSNIFRWETLLTVRLKDICSMTKEKTARLIPNAIQVCTDSEKHFFTSFGARDRTYMMMFRLWQNALLEKPLCPKELWHFVHQCYGNELGLTSDDEDYVPPDDDFNTMGYCEEIPIEENEVNDSSSKSSIETKPDASPQLPKKSITNSTLTSTGSSEAPVSFDGLPLEEEVMEGDGSLEKELAIDNIIGEKIEIMAPVTSPSLDFNDNEDIPTELSDSSDTHDEGEVQAFYEDLSGRQYVNEVFNFSVDKLYDLLFTNSPFLRDFMEQRRFSDIIFHPWKKEENGNQSRVILYTITLTNPLAPKTATVRETQTMYKASQESECYVIDAEVLTHDVPYHDYFYTINRYTLTRVARNKSRLRVSTELRYRKQPWGFVKTFIEKNFWSGLEDYFRHLETELTKTESTYLAEIHRQSPKEKASKSSAVRRRKRPHAHLRVPHLEEVMSPVTTPTDEDVGHRIKHVAGSTQTRHIPEDTPDGFHLQSVSKLLLVISCVICFSLVLLVVLNMMLFYKLWMLEYTTQTLTAWQGLRLQERLPQSQTEWAQLLESQQKYHDTELQKWREIIKSSVLLLDQMKDSLINLQNGIRSRDYTAESDEKRNRYH
B5: dynamin 3 (protein, UniProt Q8BZ98 1-863)
chain: MGNREMEELIPLVNRLQDAFSALGQSCLLELPQIAVVGGQSAGKSSVLENFVGRDFLPRGSGIVTRRPLVLQLVTSKAEYAEFLHCKGKKFTDFDEVRHEIEAETDRVTGMNKGISSIPINLRVYSPHVLNLTLIDLPGITKVPVGDQPPDIEYQIRDMIMQFITRENCLILAVTPANTDLANSDALKLAKEVDPQGLRTIGVITKLDLMDEGTDARDVLENKLLPLRRGYVGVVNRSQKDIDGKKDIKAAMLAERKFFLSHPAYRHIADRMGTPHLQKVLNQQLTNHIRDTLPNFRNKLQGQLLSIEHEVEAFKNFKPEDPTRKTKALLQMVQQFAVDFEKRIEGSGDQVDTLELSGGAKINRIFHERFPFEIVKMEFNEKELRREISYAIKNIHGIRTGLFTPDMAFEAIVKKQIVKLKGPSLKSVDLVMQELINTVKKCTKRLANFPRLCEETERIVANHIREREGKTKDQVLLLIDIQVSYINTNHEDFIGFANAQQRSSQVHKKSTIGNQVIRKGWLTVSNIGIMKGGSKGYWFVLTAESLSWYKDDEEKEKKYMLPLDNLKVRDVEKGFMSSKHVFALFNTEQRNVYKDYRFLELACDSQEDVDSWKASLLRAGVYPDKSVGSNKTENDENGQAENFSMDPQLERQVETIRNLVDSYMSIINKCIRDLIPKTIMHLMINNVKDFINSELLAQLYSSEDQNTLMEESAEQAQRRDEMLRMYQALKEALAIIGDINTATVSTPAPPPVDDSWLQHSRRSPPPSPTTQRRLTISAPLPRPTSGRGPAPAIPSPGPHSGAPPVPFRPGPLPPFPNSSDSFGAPPQVPSRPTRAPPSVPSRRPPPSPTRPTIIRPLESSLLD
B6: contactin 1 (protein, UniProt P12960 21-1001)
chain: DFTWHRRYGHGVSEEDKGFGPIFEEQPINTIYPEESLEGKVSLNCRARASPFPVYKWRMNNGDVDLTNDRYSMVGGNLVINNPDKQKDAGVYYCLASNNYGMVRSTEATLSFGYLDPFPPEERPEVKVKEGKGMVLLCDPPYHFPDDLSYRWLLNEFPVFITMDKRRFVSQTNGNLYIANVESSDRGNYSCFVSSPSITKSVFSKFIPLIPIPERTTKPYPADIVVQFKDIYTMMGQNVTLECFALGNPVPDIRWRKVLEPMPSTAEISTSGAVLKIFNIQLEDEGLYECEAENIRGKDKHQARIYVQAFPEWVEHINDTEVDIGSDLYWPCIATGKPIPTIRWLKNGYSYHKGELRLYDVTFENAGMYQCIAENAYGSIYANAELKILALAPTFEMNPMKKKILAAKGGRVIIECKPKAAPKPKFSWSKGTEWLVNSSRILIWEDGSLEINNITRNDGGIYTCFAENNRGKANSTGTLVITNPTRIILAPINADITVGENATMQCAASFDPALDLTFVWSFNGYVIDFNKEITHIHYQRNFMLDANGELLIRNAQLKHAGRYTCTAQTIVDNSSASADLVVRGPPGPPGGLRIEDIRATSVALTWSRGSDNHSPISKYTIQTKTILSDDWKDAKTDPPIIEGNMESAKAVDLIPWMEYEFRVVATNTLGTGEPSIPSNRIKTDGAAPNVAPSDVGGGGGTNRELTITWAPLSREYHYGNNFGYIVAFKPFDGEEWKKVTVTNPDTGRYVHKDETMTPSTAFQVKVKAFNNKGDGPYSLVAVINSAQDAPSEAPTEVGVKVLSSSEISVHWKHVLEKIVESYQIRYWAGHDKEAAAHRVQVTSQEYSARLENLLPDTQYFIEVGACNSAGCGPSSDVIETFTRKAPPSQPPRIISSVRSGSRYIITWDHVVALSNESTVTGYKILYRPDGQHDGKLFSTHKHSIEVPIPRDGEYVVEVRAHSDGGDGVVSQVKISGVSTLS
B7: VAPA (protein, UniProt Q9WV55 1-249)
chain: MASASGAMAKHEQILVLDPPSDLKFKGPFTDVVTTNLKLQNPSDRKVCFKVKTTAPRRYCVRPNSGIIDPGSIVTVSVMLQPFDYDPNEKSKHKFMVQTIFAPPNISDMEAVWKEAKPDELMDSKLRCVFEMPNENDKLNDMEPSKAVPLNASKQDGPLPKPHSVSLNDTETRKLMEECKRLQGEMMKLSEENRHLRDEGLRLRKVAHSDKPGSTSAVSFRDNVTSPLPSLLVVIAAIFIGFFLGKFIL
B8: DLG3 (protein, UniProt P70175 1-849)
chain: MHKHQHCCKCPECYEVTRLAALRRLEPPGYGDWQVPDPYGPSGGNGASSGYGGYSSQTLPSQAGATPTPRTKAKLIPTGRDVGPVPPKPVPGKSTPKLNGSGPGWWPECTCTNRDWYEQASPAPLLVNPEALEPSLSVNGSDGMFKYEEIVLERGNSGLGFSIAGGIDNPHVPDDPGIFITKIIPGGAAAMDGRLGVNDCVLRVNEVDVSEVVHSRAVEALKEAGPVVRLVVRRRQPPPETIMEVNLLKGPKGLGFSIAGGIGNQHIPGDNSIYITKIIEGGAAQKDGRLQIGDRLLAVNNTNLQDVRHEEAVASLKNTSDMVYLKVAKPGSIHLNDMYAPPDYASTFTALADNHISHNSSLGYLGAVESKVTYPAPPQVPPTRYSPIPRHMLAEEDFTREPRKIILHKGSTGLGFNIVGGEDGEGIFVSFILAGGPADLSGELRRGDRILSVNGVNLRNATHEQAAAALKRAGQSVTIVAQYRPEEYSRFESKIHDLREQMMNSSMSSGSGSLRTSEKRSLYVRALFDYDRTRDSCLPSQGLSFSYGDILHVINASDDEWWQARLVTPHGESEQIGVIPSKKRVEKKERARLKTVKFHARTGMIESNRDFPGLSDDYYGAKNLKGVTSNTSDSESSSKGQEDAILSYEPVTRQEIHYARPVIILGPMKDRVNDDLISEFPHKFGSCVPHTTRPRRDNEVDGQDYHFVVSREQMEKDIQDNKFIEAGQFNDNLYGTSIQSVRAVAERGKHCILDVSGNAIKRLQQAQLYPIAIFIKPKSIEALMEMNRRQTYEQANKIFDKAMKLEQEFGEYFTAIVQGDSLEEIYNKIKQIIEDQSGHYIWVPSPEKL
B9: septin 7 (protein, UniProt O55131 1-436)
chain: MSVSARSAAAEERSVNCGTMAQPKNLEGYVGFANLPNQVYRKSVKRGFEFTLMVVGESGLGKSTLINSLFLTDLYSPEYPGPSHRIKKTVQVEQSKVLIKEGGVQLLLTIVDTPGFGDAVDNSNCWQPVIDYIDSKFEDYLNAESRVNRRQMPDNRVQCCLYFIAPSGHGLKPLDIEFMKRLHEKVNIIPLIAKADTLTPEECQQFKKQIMKEIQEHKIKIYEFPETDDEEENKLVKKIKDRLPLAVVGSNTIIEVNGKRVRGRQYPWGVAEVENGEHCDFTILRNMLIRTHMQDLKDVTNNVHYENYRSRKLAAVTYNGVDNNKNKGQLTKSPLAQMEEERREHVAKMKKMEMEMEQVFEMKVKEKVQKLKDSEAELQRRHEQMKKNLEAQHKELEEKRRQFEEEKANWEAQQRILEQQNSSRTLEKNKKKGKIF

These binders were tested against phosphoY458 Kv1.2 (mouse) (UniProt P63141) (assay: affinity purification with mass spectrometry).

| binding | Binder |
| --- | --- |
| no binding | B1 |
| binds | B2 |
| no binding | B3 |
| binds | B4 |
| no binding | B5 |
| binds | B6 |
| binds | B7 |
| no binding | B8 |
| no binding | B9 |

No constants are given. Whether binding was seen depends on the method and setting. Binding seen in cells or lysates may run through a third protein. A yes stands for co-enrichment or nearness to the bait. Other partners may have been found. No binding means not detected with the bait.
